Values from PubChem BioAssay AID1259308 (NCATS, 2017)
The deposit covers about 59,000 reagents; this is a random part of them. About 1,510 of all reagents (2.6%) count as active. 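Calls use total luciferase alone and ignore viability, so some active siRNAs may act by altering cell number.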 Entries without a mark were called inactive. Reagents against one gene are numbered here. Not all columns of the deposit are shown.

Screen: 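Knock-downs that increase output of a recombinant reporter protein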 (primary screen)
Cell system: human HEK293 embryonic kidney cells stably expressing firefly luciferase (HEK-CMV-Luc2-Hygro)
Reagent: single siRNA against human genes, 0.8 pmol siRNA per well
Time to read-out: 72 h
Read-out: 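Reporter luminescence and viable-cell signal on separate replicate plates, given as percent of non-targeting control and median/MAD z-scores, plus per-cell luciferase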
Direction: total luciferase, z-score: higher = more reporter protein produced
Hit rule: 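An siRNA counts as active if its total luciferase robust z-score exceeds 3; genes with two or more such siRNAs out of three were retested with fresh siRNAs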
Calls: active = raised luciferase; inactive = no rise

Silencing of ZNF501 #1 gave: total luciferase, z-score 1.04. Silencing of ZNF501 #2 gave: total luciferase, z-score 0.673. ZNF501 #3 gave total luciferase, z-score -0.475. Against XKR5 #1, the entry reads total luciferase, z-score 1.58. Depletion of XKR5 #2 gave: total luciferase, z-score -1.55. Knock-down of XKR5 #3 came out at: total luciferase, z-score -0.0445.

KPNA2P2 #1 scored total luciferase, z-score 0.732. With knock-down of KPNA2P2 #2 the results were total luciferase, z-score -0.786. KPNA2P2 #3 scored total luciferase, z-score 0.883. With knock-down of MACROH2A1 #1 the results were total luciferase, z-score -0.353. With knock-down of MACROH2A1 #2, the screen gave total luciferase, z-score -0.241. With knock-down of MACROH2A1 #3 the results were total luciferase, z-score 2.32.

Silencing of RSL24D1 #1 came out at: total luciferase, z-score -2.51. For RSL24D1 #2, the entry reads total luciferase, z-score 2.31. Against RSL24D1 #3, the values are total luciferase, z-score -0.861. Knock-down of GLYATL1 #1 resulted in: total luciferase, z-score 0.665. After knock-down of GLYATL1 #2, the record shows total luciferase, z-score -0.48. For GLYATL1 #3, the values are total luciferase, z-score -0.638.

For LINC01346 #1, the values are total luciferase, z-score 0.642. Knock-down of LINC01346 #2 came out at: total luciferase, z-score 0.91. Depletion of LINC01346 #3 gave: total luciferase, z-score -0.419.

Copied from the entries so far, 3 entries:
MACROH2A1 #3 → total luciferase, z-score = 2.32
RSL24D1 #1 → total luciferase, z-score = -2.51
RSL24D1 #2 → total luciferase, z-score = 2.31
